The values below come from PubChem BioAssay AID977622 (Broad Institute, 2014).

The nature of assay [1]: wild-type E. coli growth inhibition versus h38 humanized strain – h38 mutant RFP, wild-type GFP, cherry-pick, dose response (AID 977622). To be noted: E. coli mixed culture, 24 h, total growth OD600 at 50 uM.
Assay [2] concerns E. coli h38 humanized mutant ribosome RFP fluorescence, mixed culture, 24 h. The assay is described as above. To be noted: h38 mutant RFP at 50 uM.

The list shows a part of the results. Shown are side measurements of this screen, not its main read-out; they come without a call.

Turning to `Cc1ccccc1S(=O)(=O)NC(=O)C1(C)CCN1C(=O)C1(c2ccc(Cl)cc2)CC1` (stereo not drawn), the figures for the activity change in assay [1] and in assay [2] were -6.16% and 11.3%, respectively.

On to `Cc1cccc(-c2ccc([C@H]3[C@H]4CN(S(=O)(=O)c5ccccc5C)CCCCN4[C@H]3CO)cc2)c1`, for which the activity change in assay [1] was -1.99%; in assay [2] it was 16%.

Consider `COc1ccc(-c2cn(-c3ccc(Cl)cc3)c3[n+]2CCCCC3)cc1`, for which the results for the activity change in assay [1] and in assay [2] were -18.7% and -4.48%, respectively.

In the case of `CCCCNC(=O)c1c(N)[nH]c(C(=O)c2ccccc2)c1-c1ccccn1`, the activity change in assay [1] is -10%; in assay [2], 9.58%.

In the case of `CC1CCN(C(=O)COC(=O)c2ccccc2NC(=O)c2ccco2)CC1`, the activity change in assay [1] is -2.86%; in assay [2], -6.98%.

As to `COc1ccc(OC)c(N(CC(=O)Nc2ccccc2F)S(=O)(=O)c2ccccc2)c1`, the activity change in assay [1] was -27.1%; in assay [2] it was 2.07%.

Turning to `CCOc1ccc(S(=O)(=O)Nc2ccc(S(=O)(=O)N3CCCC3)cc2)cc1`, the activity change was -31.5% in assay [1] and 0.068% in assay [2].

Consider `CCN(Cc1ccccc1)C(=O)COC(=O)c1cc(Cl)nc(Cl)c1`, for which the values for the activity change in assay [1] and in assay [2] were 2.8% and 4.65%, respectively.

Regarding `Cc1noc(C)c1NC(=O)Nc1ccc2c(c1)C(=O)N([C@H](C)CO)C[C@H](C)[C@@H](CN(C)C(=O)Nc1ccc3c(c1)OCO3)OCCCC[C@H](C)O2`, the values for the activity change in assay [1] and in assay [2] were -2.59% and 2.56%, respectively.

Regarding `Cc1ccc(-c2cc(-c3ccc(C)cc3)[n+](-c3ccc(C(=O)[O-])cc3)c(-c3ccc(C)cc3)c2)cc1`, the activity change in assay [1] was -18.7%; in assay [2], 25.4%.

With `CCc1ccc(NC(=O)COC(=O)CCCC2=NS(=O)(=O)c3ccccc3N2)cc1`, in assay [1], the activity change was -30.3%.

Consider `O=C(Nc1nc(-c2ccccc2)cs1)c1ccccc1F`, for which, in assay [1], the activity change was -60.7%.

As for `Cc1cccc(SCC(=O)Nc2ccccc2[N+](=O)[O-])c1`, the activity change in assay [1] was -14.7%; in assay [2], -20.4%.

As for `O=C(OCC(=O)N1CCOCC1)c1cccc(S(=O)(=O)N2CCCc3ccccc32)c1`, the activity change was -16.1% in assay [1] and 12.1% in assay [2].

On to `Cc1cccc(-c2ccc([C@@H]3[C@@H](CO)N4CCCCN(S(=O)(=O)c5ccccc5C)C[C@H]34)cc2)c1`, for which the values for the activity change in assay [1] and in assay [2] were -25.2% and 20.3%, respectively.

Take `CCc1nnc(NC(=O)CSc2ncc(-c3ccccc3)[nH]2)s1`: the figures for the activity change in assay [1] and in assay [2] were -2.2% and -10.1%, respectively.

On to `O=C(Cc1cccc(NC(=O)C2CCN(C(=O)C3CCCCC3)CC2)c1)Nc1cccc(C(=O)N2CCCC2)c1`, for which the activity change was -22.2% in assay [1] and 3.23% in assay [2].

With `CC[N+](CC)(CC#Cc1ccccc1)CC#Cc1ccccc1`, the values for the activity change in assay [1] and in assay [2] were -31% and 37.4%, respectively.

Consider `COc1cccc(NC(=O)C2CCC(CNS(=O)(=O)c3cccc4cccnc34)CC2)c1` (stereo not drawn), for which the values for the activity change in assay [1] and in assay [2] were -14.4% and 5.19%, respectively.

As to `Cc1ccsc1C(=O)N1CCCC(C(=O)c2cc(F)ccc2F)C1` (stereo not drawn), the activity change was -20.1% in assay [1] and -3.1% in assay [2].

As for `CCN(CC)S(=O)(=O)c1cccc(NC(=O)COc2ccc(F)cc2Br)c1`, the activity change in assay [1] was -91%; in assay [2], -11.5%.

With `CCc1nc2ccccc2n1CCc1ccccc1`, the results for the activity change in assay [1] and in assay [2] were -33.5% and 23.4%, respectively.

Turning to `CC1CN(CC(=O)Nc2nc3ccccc3s2)CC(C)O1` (stereo not drawn), the activity change in assay [1] is -12.8%.

In the case of `CCc1cc2ccc(OC)cc2nc1SCC(=O)N1CCN(C(=O)c2ccco2)CC1`, in assay [1], the activity change was -52.8%.

As for `Cc1ccc(-n2nnnc2-c2ccccc2Br)cc1`, the activity change in assay [1] was -48.2%; in assay [2], -12.7%.

On to `N#Cc1cccc(-c2ccc3c(c2)[C@@H]2[C@@H](CCN2S(=O)(=O)c2cccc(F)c2)[C@H](CO)N3)c1`, for which the figures for the activity change in assay [1] and in assay [2] were -51.2% and -28.4%, respectively.

As for `O=C(CSc1nc2scc(-c3ccccc3)c2c(=O)[nH]1)N1CCCCC1`, the activity change in assay [1] is -57.3%; in assay [2], -28.3%.

Turning to `NS(=O)(=O)c1ccc(CCNC(=O)CCCCCNc2nc(=S)[nH]c3ccccc23)cc1`, the activity change in assay [1] is -10%.

In the case of `COC(=O)CNC(=O)COC(=O)c1ccc(Cl)nc1`, the activity change in assay [1] was -25.5%.

Regarding `COC(=O)c1nc(-c2ccc(C)cc2)[nH]c1C(C)(C)C`, the activity change in assay [1] is -10.1%; in assay [2], -12.6%.

Regarding `CCCCNc1ccc2c(c1)OC[C@@H](Cc1ccccc1)NS2(=O)=O`, the activity change in assay [1] is -72.5%; in assay [2] it was 32.4%.

For the molecule `CCOC(=O)CCSc1n[nH]c(=S)s1`, the activity change is -8.54% in assay [1] and 23.6% in assay [2].

`COc1ccc(C2=Nc3ccccc3NC(=O)C2N(C(=O)c2ccnc3ccccc23)c2ccccc2)cc1` (stereo not drawn): the activity change in assay [1] is -55.1%; in assay [2], 7.44%.

`C[C@@H]1CCCCO[C@H](CN(C)C(=O)CCCN(C)C)[C@H](C)CN([C@H](C)CO)C(=O)c2cc(NC(=O)Nc3cccc4ccccc34)ccc2O1`: the activity change is -3.82% in assay [1] and 21.3% in assay [2].

`COc1ccc(OC)c(-c2nnc3n2N=C(c2ccc(OC)c(OC4CCOC4)c2)CS3)c1` (stereo not drawn): the activity change in assay [1] is -44.8%.

Turning to `CSc1nc2nc3c(cc2c(=O)n1-c1ccccc1C)CCCC3`, the results for the activity change in assay [1] and in assay [2] were -10.5% and -3.69%, respectively.

On to `COc1cccc(-c2ccc([C@@H]3[C@H](CO)N4CCCCN(S(=O)(=O)c5cccs5)C[C@@H]34)cc2)c1`, for which the activity change was -72.7% in assay [1] and -53.6% in assay [2].

In the case of `O=C(c1cc2cc(F)ccc2[nH]1)N1CCN(Cc2ccc3c(c2)OCO3)CC1`, the values for the activity change in assay [1] and in assay [2] were -81.6% and 15.1%, respectively.

Regarding `Cc1ccc(C(=O)NCC(=O)OCC(=O)Nc2cccc(S(=O)(=O)N3CCCC3)c2)cc1C`, the results for the activity change in assay [1] and in assay [2] were -2.77% and -1.43%, respectively.

Turning to `Fc1ccccc1C1CCN(Cc2nc(CC3CC3)no2)C1` (stereo not drawn), the activity change in assay [1] is -8.44%.

On to `CCOC(=O)c1ccc(CC(=O)c2oc3cc(O)ccc3c2C)o1`, for which the activity change was -26.8% in assay [1] and 15.6% in assay [2].

Take `C[C@@H]1CN([C@@H](C)CO)C(=O)c2cc(NC(=O)Nc3cccc4ccccc34)ccc2O[C@@H](C)CCCCO[C@@H]1CN(C)C(=O)CCCN(C)C`: the activity change in assay [1] is -4.93%; in assay [2], 10.1%.

`CC1(c2ccc3ccccc3c2)NC(=O)N(CC(=O)N2CCN(c3ccccc3O)CC2)C1=O` (stereo not drawn): the activity change was -5.96% in assay [1] and -12.2% in assay [2].
